Patent US20210153516A1, “COMPOSITION AND METHOD OF TREATING PLANTS AND PLANT PARTS WITH VOLATILE SPOILAGE ORGANISM CONTROLLING ACTIVES” (AGROFRESH INC., priority 2019, published 2021)

Legend:
[1] = Volatile compound residue on mandarins during cold storage after dipping treatment
[2] = Volatile compound residue on mandarins during cold storage after spray treatment

OB1OCc2cc(F)ccc21 [5-fluoro-1-hydroxy-3H-2,1-benzoxaborole]
Residue on treated mandarins ([1]; 0 days in cold storage): 0.877 mg/kg
Residue on untreated mandarins mixed with treated mandarins ([1]; 0 days in cold storage): Non-detectable
Residue on treated mandarins ([1]; 3 days in cold storage): 1.168 mg/kg
Residue on untreated mandarins mixed with treated mandarins ([1]; 3 days in cold storage): 0.400 mg/kg
Residue on treated mandarins ([1]; 7 days in cold storage): 1.182 mg/kg
Residue on untreated mandarins mixed with treated mandarins ([1]; 7 days in cold storage): 0.403 mg/kg
Residue on treated mandarins ([2]; 0 days in cold storage): 0.649 mg/kg
Residue on untreated mandarins mixed with treated mandarins ([2]; 0 days in cold storage): Non-
Residue on treated mandarins ([2]; 3 days in cold storage): 0.505 mg/kg
Residue on untreated mandarins mixed with treated mandarins ([2]; 3 days in cold storage): 0.239 mg/kg
Residue on treated mandarins ([2]; 7 days in cold storage): 0.278 mg/kg
Residue on untreated mandarins mixed with treated mandarins ([2]; 7 days in cold storage): 0.190 mg/kg
